Data reported in publication PMC6158915.
No constants are given. Whether binding was seen depends on the method and setting. Binding seen in cells or lysates may run through a third protein. A yes stands for co-enrichment or nearness to the bait. Other partners may have been found.

The chains behind the UniProt entries cited, without tags or fusion partners.
UniProt P36405: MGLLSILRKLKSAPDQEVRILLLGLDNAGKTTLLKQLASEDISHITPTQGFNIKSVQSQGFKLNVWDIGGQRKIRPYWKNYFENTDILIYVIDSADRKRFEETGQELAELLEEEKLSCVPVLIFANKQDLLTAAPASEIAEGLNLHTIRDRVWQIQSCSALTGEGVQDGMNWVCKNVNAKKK

Target: Pde6δ-Strep-HA (retinal rod rhodopsin-sensitive cGMP 3',5'-cyclic phosphodiesterase subunit delta) (human) (UniProt O43924)
Assay: affinity purification with mass spectrometry; Pde6δ-Strep-HA stably expressed in HEK293 pulled down from protein extracts on Strep-Tactin Sepharose beads; label-free quantitative MS (LTQ Orbitrap XL); control HEK293 cells without bait; vehicle (DMSO) treated cells, also REM treated cells; co-precipitation threshold of 2 (Pde6δ vehicle/control); three biological replicates

In the case of Arl3 (from UniProt P36405 1-182), the binding is reported as “binds”.
